# Entries after “also recorded” stand apart in the source; their conditions may differ. For part of these data: At least one compound was matched to its structure with a doubt left. Some results were stated once for a whole list of compounds, not compound by compound.
# Columns and labels:
# [1] = test system: LRRC54 gene vs PgR gene; experiment: preferential activation of non-genomic (LRRC54) over genomic (PgR) gene; conditions: relative to activation by E2
# [2] = test system: ovariectomized C57BL/6 mice; experiment: gene regulation and signaling pathway activation in tissues in vivo; conditions: 5 μg E2 or 300 μg PaPE-1, 2 h
# [3] = test system: eNOS; experiment: eNOS activation in primary endothelial cells (14C-L-arginine to 14C-L-citrulline); assay type: cell-based, bovine; conditions: 15 min; 10 nM ligand (FIG. 9E)
SMILES,"preference for activation of the non-genomic pathway (LRRC54 over PgR), in words [1]",mTOR signaling (S6 phosphorylation) in liver and skeletal muscle [2],eNOS / NOS activity [3]
"Cc1cc([C@H]2CC[C@@]3(C)[C@H](CC[C@@H]3O)C2)cc(C)c1O [Compound 43, (1S,3aR,5S,7aS)-5-(4-hydroxy-3,5-dimethylphenyl)-7a-methyloctahydro-1H-inden-1-ol]",little or no preference for activation of the non-genomic pathway,,
"C[C@]12CC[C@@H]3c4ccc(O)cc4CC[C@H]3[C@@H]1CC[C@@H]2O [Compound E2, estradiol, reference compound]",,highly effective in inducing mTOR signaling,activated; also recorded: increased NOS activity
